A: 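Tryptophan-tRNA ligase, Mycobacterium tuberculosis (UniProt P9WFT3). Enzyme assay of tryptophanyl-tRNA synthetase; the read-out is not stated. Tested at 10 µM. Higher most likely means stronger inhibition; the record gives no direction and few retests gave an IC50. Size under these conditions: about 65,000 compounds, about 64 of them at 50% or above in at least one test.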
B: 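Enzyme assay of the thioesterase domain of polyketide synthase 13; the read-out is not stated. Target: Polyketide synthase Pks13, Mycobacterium tuberculosis (UniProt I6X8D2). Concentration: 30 µM. The record gives no direction; the compounds picked for IC50 retests had high values, so higher reads as stronger inhibition. Size under these conditions: about 67,000 compounds, about 300 of them at 50% or above in at least one test.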

Amino acid sequences for entries named in this document (tags omitted).
UniProt P9WFT3, whole entry: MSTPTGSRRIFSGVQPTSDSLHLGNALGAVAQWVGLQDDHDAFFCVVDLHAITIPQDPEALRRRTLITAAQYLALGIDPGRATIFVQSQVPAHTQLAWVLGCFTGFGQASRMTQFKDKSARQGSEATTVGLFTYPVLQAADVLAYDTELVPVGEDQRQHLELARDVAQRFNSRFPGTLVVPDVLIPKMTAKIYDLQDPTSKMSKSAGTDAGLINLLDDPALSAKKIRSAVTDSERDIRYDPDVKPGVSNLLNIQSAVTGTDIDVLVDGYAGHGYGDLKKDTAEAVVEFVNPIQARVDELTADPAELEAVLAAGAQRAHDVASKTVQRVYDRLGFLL
UniProt I6X8D2, whole entry: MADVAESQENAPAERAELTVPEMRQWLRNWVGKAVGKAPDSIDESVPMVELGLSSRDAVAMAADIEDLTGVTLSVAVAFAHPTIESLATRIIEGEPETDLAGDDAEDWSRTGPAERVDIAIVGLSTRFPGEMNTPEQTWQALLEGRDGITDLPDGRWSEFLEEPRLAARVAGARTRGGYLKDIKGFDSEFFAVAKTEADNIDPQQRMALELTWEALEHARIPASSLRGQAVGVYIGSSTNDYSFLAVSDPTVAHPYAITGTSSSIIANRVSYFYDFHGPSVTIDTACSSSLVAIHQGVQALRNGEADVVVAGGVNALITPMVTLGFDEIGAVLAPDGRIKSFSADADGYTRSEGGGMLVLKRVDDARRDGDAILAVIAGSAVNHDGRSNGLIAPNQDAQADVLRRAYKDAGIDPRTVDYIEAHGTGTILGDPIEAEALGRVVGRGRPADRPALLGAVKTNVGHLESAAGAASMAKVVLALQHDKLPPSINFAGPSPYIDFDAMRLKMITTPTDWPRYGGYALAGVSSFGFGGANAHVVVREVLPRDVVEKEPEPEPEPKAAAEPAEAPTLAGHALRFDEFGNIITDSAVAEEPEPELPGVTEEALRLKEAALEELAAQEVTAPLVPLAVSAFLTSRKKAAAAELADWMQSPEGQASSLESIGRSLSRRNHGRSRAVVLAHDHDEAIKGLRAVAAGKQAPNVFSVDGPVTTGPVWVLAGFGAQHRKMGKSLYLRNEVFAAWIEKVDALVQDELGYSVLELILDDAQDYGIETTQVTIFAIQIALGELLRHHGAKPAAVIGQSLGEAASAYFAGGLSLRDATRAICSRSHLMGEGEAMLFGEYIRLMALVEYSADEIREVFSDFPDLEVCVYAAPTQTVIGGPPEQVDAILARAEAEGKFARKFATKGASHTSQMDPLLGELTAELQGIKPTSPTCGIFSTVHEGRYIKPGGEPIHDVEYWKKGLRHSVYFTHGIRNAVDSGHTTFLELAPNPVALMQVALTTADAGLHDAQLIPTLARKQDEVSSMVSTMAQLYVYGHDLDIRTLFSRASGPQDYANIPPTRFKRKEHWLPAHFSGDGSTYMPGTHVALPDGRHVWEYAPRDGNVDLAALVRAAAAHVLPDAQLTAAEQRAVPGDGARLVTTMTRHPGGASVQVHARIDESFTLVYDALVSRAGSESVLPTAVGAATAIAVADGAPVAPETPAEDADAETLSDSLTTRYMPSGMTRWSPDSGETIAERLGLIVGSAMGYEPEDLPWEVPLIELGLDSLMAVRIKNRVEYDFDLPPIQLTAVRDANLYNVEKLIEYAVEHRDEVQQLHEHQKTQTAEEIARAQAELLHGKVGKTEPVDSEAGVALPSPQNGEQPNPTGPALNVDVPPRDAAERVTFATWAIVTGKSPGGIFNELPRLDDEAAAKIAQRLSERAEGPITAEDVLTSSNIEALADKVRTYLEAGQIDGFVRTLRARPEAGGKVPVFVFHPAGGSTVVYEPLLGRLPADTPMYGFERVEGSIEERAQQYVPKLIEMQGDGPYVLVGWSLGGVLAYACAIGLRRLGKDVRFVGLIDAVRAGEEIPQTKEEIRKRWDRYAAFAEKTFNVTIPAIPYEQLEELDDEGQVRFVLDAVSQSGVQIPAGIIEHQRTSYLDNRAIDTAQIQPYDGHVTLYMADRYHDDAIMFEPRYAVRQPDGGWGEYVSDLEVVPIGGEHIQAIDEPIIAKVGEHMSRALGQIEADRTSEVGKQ

Results are given as percent effect. The controls that fix the scale are not given in the record; negative values are as filed. This is an unselected part of the compounds tested. A dash means the value is not listed here; it may have been measured.

compound,A,B
NC(=O)C1CCN(C(=O)NC2CCc3cc(F)ccc32)CC1 (centres unmarked),-0.4301,-0.46
CN(C)CCNC(=O)c1sccc1N(C)S(=O)(=O)c1ccc(Cl)cc1,1.492,-2.24
CC(=O)N1CCC2(CCN(Cc3cccc(F)c3)CC2)CC1,-5.855,-27.92
COc1cccc(CNc2cnn(C)c(=O)c2Cl)c1,-0.2534,-14.37
c1ccc(-c2noc3c2CN(CC2CC2)CC3)cc1,4.348,-36.61
Cc1noc(CCCC(=O)NCC(c2ccco2)N2CCCC2)n1 (centres unmarked),0.7607,-5.347
Cc1oncc1C(=O)N1CC[C@H]2C[C@H](c3ccncn3)O[C@@H]2C1,0.3487,-36.92
COc1ccc(C)cc1CN1CCC(c2cc3ncccc3cn2)CC1,1.291,-26.76
CNC(=O)[C@H]1C[C@@H]2CN(C(=O)c3ccccn3)C[C@@H]2N1S(C)(=O)=O,5.408,-6.486
NCC1Cc2cc(-c3cncc(C(=O)N4CCCCC4)n3)cc(F)c2O1 (centres unmarked),-1.21,5.679
Cn1ncc2c(=O)[nH]c(CN3CCCC3c3ccccc3Cl)nc21 (centres unmarked),-9.386,-5.4
Cc1ncsc1C(=O)N1CCC(O)(CN2CCc3ccccc3C2)C1 (centres unmarked),-,-22.12
N#Cc1cccc(N2CCC3(CCC(=O)N(CC(N)=O)C3)CC2)n1,-5.197,-10.62
CC(C)c1nc2c(n1C)CCN(Cc1cccc(C(N)=O)c1)C2,-4.16,-10.93
CNC(=O)NC(=O)Cn1cc(-c2ccccc2)cn1,-0.09747,-9.62
NC(=O)Nc1cc(F)ccc1SCC(F)F,2.601,-22.66
CN(C)CC1CSCCCN1C(=O)c1ccc(-n2cccc2)cc1 (centres unmarked),8.142,-15.91
Cc1ccc(CN(Cc2cc(=O)n3cccc(C)c3n2)C(C)C)o1,-1.3,19.26
O=C1CC(c2ccc(F)cc2)Cc2[nH]c(=O)c(C(=O)O)cc21 (centres unmarked),4.499,-26.03
O=C(C1NCCc2[nH]cnc21)N1CCC2(C=Cc3ccccc32)CC1 (centres unmarked),-0.3221,-21.42
N#Cc1cccc(S(=O)(=O)NC2CCN(Cc3ccccc3)C2=O)c1 (centres unmarked),0.07868,-33.34
O=C(c1cnn(-c2ccccc2Cl)c1)N1CCN(CCO)CC1,-3.171,-7.842
COc1ccccc1C(C)Nc1ncc(C(N)=O)cc1Cl (centres unmarked),-0.3276,-15.62
Cc1ccc2ncn(CC(O)CN3CCC(C)CC3)c(=O)c2c1 (centres unmarked),3.995,-20.99
CC(C)OCCCNC(=O)NC(C)c1ccc(-n2cncn2)cc1 (centres unmarked),3.532,-38.12
Cc1cc(C)n(CC2CCCN2CCCS(C)(=O)=O)n1 (centres unmarked),-6.656,-20.49
O=C(NCC1CC1)C1=NOC2(CCN(S(=O)(=O)Cc3ccccc3)C2)C1 (centres unmarked),-5.057,-3.822
CNC(=O)c1sc(C(NC(=O)c2ccccc2)C2CC2)nc1C (centres unmarked),-4.139,-0.3288
COc1ccccc1CC(=O)NCc1c(C)nc2cc(=O)[nH]n2c1C,5.189,-0.9929
COCCN(Cc1ccccc1)Cc1nc(-c2ccsc2)no1,-0.3666,-8.094
C=C(C)COc1ccccc1CNCCc1cc(O)nc(C)n1,2.563,-8.786
Cc1ccc(C(=O)Nc2cn[nH]c2)cn1,-2.516,-1.264
Cc1ccc(C(=O)N2CCCC2c2nnc3n2CCCCC3)s1 (centres unmarked),2.724,-13.77
COc1ccc(C(CNC(=O)Nc2cn[nH]c2)N2CCOCC2)cc1 (centres unmarked),-1.642,-16.95
CN(C(=O)COc1ccc(F)cc1)[C@@H]1CS(=O)(=O)C[C@H]1O,0.4016,8.633
NC(=O)C1CCN(C(=O)c2ccc(Sc3ccccn3)cc2)CC1,-3.541,-26.32
CC(CN1CCC(c2ccccc2)CC1)n1cnc2ccccc21 (centres unmarked),-1.386,-6.289
COCCC(=O)N1CC2(CCN(Cc3ccccc3Cl)CC2)C1,4.776,-2.909
CC(C)Nc1nc2c(c(N(C)C)n1)CCN(C(=O)c1cc[nH]n1)CC2,-4.584,-17.73
Cc1ccc(C(=O)NCc2ccccc2S(=O)(=O)N(C)CCO)cc1F,-2.999,-36.21
COCC(=O)Nc1cnn(COc2ccc(F)cc2Cl)c1,7.885,-19.5
Cc1cc(NC(=O)CN2CCCC2Cn2nc(C)nc2C)on1 (centres unmarked),-1.591,-15.65
O=C(N1CCCC1)N1C[C@H]2CC[C@@]3(N=C(c4ccccc4)NC3=O)[C@H]2C1,3.417,12.06
Cc1ccc(N2C[C@@H]3CN(Cc4csc(C)n4)CCO[C@@H]3C2)nn1,-2.379,11.12
CN(C)c1ccc(C(=O)N2Cc3cnc(C(C)(C)C)nc3C2)cc1,-2.29,-39.43
CCCn1nc2c(cc1=O)CN(CCN1CCCC1=O)CC2,-6.356,13.43
Cn1cc(C(=O)N2CCCC2c2noc(C3CC3)n2)c2ccccc21 (centres unmarked),-3.115,-18.94
CCNC(=O)C1CCN(Cc2csc(-c3ccc(C)o3)n2)CC1,-3.411,-2.526
Cc1nc(C)c(CC(=O)Nc2nnc(C(C)C)s2)c(=O)[nH]1,0.832,-13.49
Cc1ccc(CNC(=O)NC2CCN(CC(F)F)CC2)cc1,3.078,-36.94
CCOCCN1CCCC(c2cc(C(N)=O)[nH]n2)C1 (centres unmarked),0.4223,-11.83
CC(C)n1ccc2ccc(C(=O)NC3CN4CCC3CC4)cc21 (centres unmarked),3.151,-28.74
Cc1cc(C(=O)N[C@H](C)c2onc(C)c2C(=O)O)c(C)o1,-0.6865,-1.593

For reference, 4 entries once more:

| compound | A | B |
|---|---|---|
| `CN(C(=O)COc1ccc(F)cc1)[C@@H]1CS(=O)(=O)C[C@H]1O` | 0.4016 | 8.633 |
| `CC(CN1CCC(c2ccccc2)CC1)n1cnc2ccccc21` (centres unmarked) | -1.386 | -6.289 |
| `NC(=O)C1CCN(C(=O)NC2CCc3cc(F)ccc32)CC1` (centres unmarked) | -0.4301 | -0.46 |
| `Cc1cc(C(=O)N[C@H](C)c2onc(C)c2C(=O)O)c(C)o1` | -0.6865 | -1.593 |

Measurements from “University of Dundee, Small-Polar-MMV Screening Library” (2021), ChEMBL document CHEMBL3988442.